PubChem BioAssay AID720505, Drosophila RNAi Screening Center, 2013
Test: 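Knock-downs that reduce calcium influx once internal stores are emptied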 (primary screen). System: Drosophila S2R+ cells. Reagent: long dsRNA against Drosophila genes. Challenge: thapsigargin (2 µM) in calcium-free buffer to empty internal stores, then 2 mM calcium added back. Detection: 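Fluo-4 signal in 384-well plates read on a FLIPR after thapsigargin (2 µM, calcium-free) store depletion and 2 mM calcium add-back; unnormalised mean endpoint per well; screen run twice, selected wells retested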. Scale: calcium signal and retest calcium signal: higher = more calcium entry after store depletion. Rule for the call: 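Knock-downs counted as hits when calcium entry dropped relative to STIM1 positive and Rho1 negative controls present on each plate; roughly 1500 genes called, with reductions of differing size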. Meaning of the calls: active = called as lowering calcium entry; inactive = not called.
The screen tested about 20,000 reagents; shown is an unselected part of those with a known target gene and a result. Over the whole deposit, about 2,100 (10%) were called active. 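Raw plate signals without normalisation; calls rest on control-based scores that were not deposited; replicate 2 separates called from uncalled poorly.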 Names joined by + are all predicted targets of the reagent. Not stated in the record: the amount of reagent, the time to read-out.

The first 9 entries as a preview:
Target gene | amplicon | calcium signal, replicate 1 | calcium signal, replicate 2 | retest calcium signal, replicate 1 | retest calcium signal, replicate 2 | Outcome
Stt3B | DRSC16781 | 297 | 153 | – | – | inactive
CG11112 | DRSC06038 | 115 | 134 | – | – | inactive
Mink (Mitotic spindle and nuclear protein) | DRSC14291 | 199 | 317 | – | – | inactive
Inx7 (Innexin 7) | DRSC18784 | 233 | 145 | – | – | inactive
CG12605 | DRSC08286 | 82.2 | 118 | – | – | inactive
CG14086 | DRSC10090 | 111 | 163 | – | – | inactive
ldd (lipid droplet defective) | DRSC20558 | 196 | 90.2 | – | – | inactive
ldd (lipid droplet defective) | DRSC22696 | 107 | 155 | – | – | inactive
Gycalpha99B (Guanylyl cyclase alpha-subunit at 99B) | DRSC16690 | 66.2 | 149 | – | – | active

Results, from the start:
Target gene | amplicon | calcium signal, replicate 1 | calcium signal, replicate 2 | retest calcium signal, replicate 1 | retest calcium signal, replicate 2 | Outcome
Stt3B | DRSC16781 | 297 | 153 | – | – | inactive
CG11112 | DRSC06038 | 115 | 134 | – | – | inactive
Mink (Mitotic spindle and nuclear protein) | DRSC14291 | 199 | 317 | – | – | inactive
Inx7 (Innexin 7) | DRSC18784 | 233 | 145 | – | – | inactive
CG12605 | DRSC08286 | 82.2 | 118 | – | – | inactive
CG14086 | DRSC10090 | 111 | 163 | – | – | inactive
ldd (lipid droplet defective) | DRSC20558 | 196 | 90.2 | – | – | inactive
ldd (lipid droplet defective) | DRSC22696 | 107 | 155 | – | – | inactive
Gycalpha99B (Guanylyl cyclase alpha-subunit at 99B) | DRSC16690 | 66.2 | 149 | – | – | active
Trs23 (TRAPP subunit 23) | DRSC03190 | 213 | 141 | – | – | inactive
CG15023 | DRSC08477 | 73.9 | 72.2 | – | – | inactive
CG12917 | DRSC06231 | 84.2 | 130 | – | – | inactive
CG32473 | DRSC14352 | 153 | 231 | – | – | inactive
CG32473 | DRSC16446 | 116 | 88.8 | – | – | inactive
Sp212 (Serine-peptidase 212) | DRSC22930 | 148 | 193 | – | – | inactive
CG13733 | DRSC10061 | 100 | 113 | – | – | inactive
Dyb (Dystrobrevin) | DRSC07208 | 63 | 178 | 214 | 115 | inactive
Dyb (Dystrobrevin) | DRSC22862 | 92.6 | 106 | – | – | inactive
Gas8 (Growth arrest specific protein 8) | DRSC22884 | 104 | 149 | – | – | inactive
CG1172 + Or83a | DRSC12357 | 113 | 129 | – | – | inactive
CG42362 + CG42363 | DRSC04265 | 86.6 | 89.6 | – | – | inactive
Cpr65Eb (Cuticular protein 65Eb) | DRSC11026 | 119 | 98.4 | – | – | inactive
Pgant8 (Polypeptide N-Acetylgalactosaminyltransferase 8) | DRSC10801 | 108 | 158 | – | – | inactive
CG31664 | DRSC22084 | 99.7 | 205 | – | – | inactive
Rich (RIC1 homolog) | DRSC11607 | 133 | 132 | – | – | inactive
H15 | DRSC03339 | 58.7 | 89.7 | – | – | active
H15 | DRSC22199 | 122 | 214 | – | – | inactive
sand (sandman) | DRSC07245 | 131 | 113 | – | – | inactive
Srp14 (Signal recognition particle 14) | DRSC15797 | 214 | 153 | – | – | inactive
CG7483 | DRSC16249 | 45 | 68.8 | – | – | active
CG7483 | DRSC22432 | 131 | 179 | – | – | inactive
Patj | DRSC08712 | 176 | 106 | – | – | inactive
CG12984 | DRSC11693 | 96.4 | 95.8 | – | – | inactive
CG31922 | DRSC21703 | 151 | 70.9 | – | – | inactive
Snx6 (Sorting nexin 6) | DRSC03081 | 140 | 238 | – | – | inactive
CG31343 | DRSC15887 | 131 | 177 | – | – | inactive
Sdc (Syndecan) | DRSC04654 | 101 | 107 | – | – | inactive
CG44085 | DRSC02922 | 56.4 | 88.3 | – | – | active
CG44085 | DRSC02929 | 108 | 113 | – | – | inactive
CG44085 | DRSC23040 | 115 | 186 | – | – | inactive
laf (labial associated factor) | DRSC12246 | 131 | 139 | – | – | inactive
Bmcp | DRSC10808 | 155 | 94.1 | – | – | inactive
Or65c (Odorant receptor 65c) | DRSC21312 | 116 | 75.5 | – | – | inactive
Pp1-Y1 (Protein phosphatase 1, Y-linked 1) | DRSC20896 | 81.5 | 7058 | – | – | inactive
hfp (half pint) | DRSC08731 | 54.4 | 81.8 | – | – | active
hfp (half pint) | DRSC08732 | 97.8 | 65.6 | – | – | inactive
hfp (half pint) | DRSC22408 | 99.4 | 196 | – | – | inactive
CASK | DRSC14588 | 197 | 198 | 8515 | 155 | inactive
CASK | DRSC16597 | 148 | 134 | – | – | inactive
CASK | DRSC16598 | 252 | 202 | – | – | inactive
CASK | DRSC21917 | 79.1 | 182 | – | – | inactive
CG4546 | DRSC15593 | 114 | 193 | – | – | inactive
CG8299 | DRSC07139 | 118 | 114 | – | – | inactive
Gbp3 (Growth-blocking peptide 3) | DRSC15206 | 242 | 164 | – | – | inactive
CG6959 | DRSC16151 | 178 | 115 | – | – | inactive
CG12171 | DRSC12200 | 132 | 165 | – | – | inactive
Gar1 (Gar1 ribonucleoprotein) | DRSC04441 | 63.9 | 216 | – | – | inactive
betaTub97EF (beta-Tubulin at 97EF) | DRSC15666 | 196 | 171 | – | – | inactive
betaTub97EF (beta-Tubulin at 97EF) | DRSC15667 | 147 | 163 | – | – | inactive
betaTub97EF (beta-Tubulin at 97EF) | DRSC15668 | 177 | 205 | – | – | inactive
CG5290 | DRSC10501 | 136 | 110 | – | – | inactive
Hakai | DRSC02031 | 94.2 | 113 | – | – | inactive
Rab3GAP1 (RAB3 GTPase activating protein subunit 1) | DRSC00291 | 152 | 177 | – | – | inactive
Rab3GAP1 (RAB3 GTPase activating protein subunit 1) | DRSC00703 | 191 | 176 | – | – | inactive
CG13465 | DRSC10011 | 76.5 | 184 | – | – | active
CG32809 | DRSC18507 | 116 | 87.6 | 149 | 125 | inactive
CG32809 | DRSC18592 | 74.6 | 79.4 | – | – | active
Irbp18 (Inverted repeat binding protein 18 kDa) | DRSC10612 | 87.9 | 151 | – | – | inactive
Nepl18 (Neprilysin-like 18) | DRSC14879 | 158 | 133 | – | – | inactive
CG8840 | DRSC00713 | 129 | 100 | – | – | inactive
CG14931 | DRSC02413 | 199 | 135 | – | – | inactive
Traf6 (TNF-receptor-associated factor 6) | DRSC18725 | 255 | 137 | – | – | inactive
ND5 (retired record) | DRSC21281 | 68.7 | 173 | – | – | active
CG5122 | DRSC02816 | 109 | 84.8 | – | – | inactive
CG1737 | DRSC19771 | 148 | 162 | – | – | inactive
CG8128 | DRSC20084 | 142 | 144 | – | – | inactive
snoRNA:Me28S-C3227a + snoRNA:Me18S-A1061 + snoRNA:Me28S-C3227b + 7 more | DRSC05497 | 132 | 101 | 7806 | 108 | inactive
CG18675 | DRSC08536 | 79.5 | 75 | – | – | inactive
Idgf1 (Imaginal disc growth factor 1) | DRSC03349 | 86.3 | 111 | – | – | inactive
CG6051 | DRSC15956 | 142 | 158 | – | – | inactive
boil (boilerman) | DRSC17872 | 263 | 84.8 | – | – | inactive
faf (fat facets) | DRSC16942 | 73.2 | 105 | – | – | inactive
Btnd (Biotinidase) | DRSC18316 | 247 | 81.5 | – | – | inactive
